Source: PubChem BioAssay AID652272 (Drosophila RNAi Screening Center, 2013)
Screen: 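Genes whose knock-down decreases or increases Hedgehog reporter output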 (primary screen). Cells: Drosophila clone 8 (Cl8) cells. Knock-down reagent: long dsRNA against Drosophila genes. Measured: 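Firefly light from a Hedgehog-responsive ptc promoter reporter and Renilla reference light, both read on a plate reader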. Scale: firefly Hh reporter signal: higher = more ptc reporter light; Renilla reference signal: higher = more Renilla control light. Rule for the call: 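Called a hit if the two-replicate mean z-score lies below -2 or above +3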. Meaning of the calls: active = hit: reporter lowered or raised; inactive = not a hit.
The screen tested about 21,000 reagents; below is an unselected part of those that have a named target and a result. Over the whole deposit, 503 (2.4%) were called active. 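Raw plate light values, not normalised; calls rest on replicate z-scores that were not deposited; hits include reporter decreases as well as increases.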 A number with no mark means an inactive call. Names joined by + are all predicted targets of the reagent. Not given: the amount of reagent, the time to read-out.

With knock-down of CG42397 the results were firefly Hh reporter signal, replicate 1 = 1.30e5; firefly Hh reporter signal, replicate 2 = 2.69e5; Renilla reference signal, replicate 1 = 5639; Renilla reference signal, replicate 2 = 9035.
After knock-down of up the results were firefly Hh reporter signal, replicate 1 = 52521; firefly Hh reporter signal, replicate 2 = 50197; Renilla reference signal, replicate 1 = 1296; Renilla reference signal, replicate 2 = 1140.
With knock-down of CG11537, the screen gave firefly Hh reporter signal, replicate 1 = 89891; firefly Hh reporter signal, replicate 2 = 61859; Renilla reference signal, replicate 1 = 3458; Renilla reference signal, replicate 2 = 2656.
Against CG13054, the values are firefly Hh reporter signal, replicate 1 = 95365; Renilla reference signal, replicate 1 = 3236; Renilla reference signal, replicate 2 = 3176.
For wam, the entry reads firefly Hh reporter signal, replicate 1 = 5.53e5; firefly Hh reporter signal, replicate 2 = 82573; Renilla reference signal, replicate 1 = 26041; Renilla reference signal, replicate 2 = 2411.
Depletion of CG5265 gave: firefly Hh reporter signal, replicate 1 = 61484; firefly Hh reporter signal, replicate 2 = 83409; Renilla reference signal, replicate 1 = 1249; Renilla reference signal, replicate 2 = 5914.
For asRNA:CR30267 + CG42260 the deposit lists firefly Hh reporter signal, replicate 1 = 1.34e5; firefly Hh reporter signal, replicate 2 = 1.94e5; Renilla reference signal, replicate 1 = 3672; Renilla reference signal, replicate 2 = 9465.
With knock-down of CG4270, the record shows firefly Hh reporter signal, replicate 1 = 87825; firefly Hh reporter signal, replicate 2 = 1.02e5; Renilla reference signal, replicate 1 = 2144; Renilla reference signal, replicate 2 = 2667.
Knock-down of Vha14-2 came out at: firefly Hh reporter signal, replicate 1 = 95876; firefly Hh reporter signal, replicate 2 = 1.07e5; Renilla reference signal, replicate 1 = 3565; Renilla reference signal, replicate 2 = 3104.
After knock-down of CG13218 the results were firefly Hh reporter signal, replicate 1 = 1.10e5; firefly Hh reporter signal, replicate 2 = 54565; Renilla reference signal, replicate 1 = 2332; Renilla reference signal, replicate 2 = 3676.
Against Sirt1, the entry reads firefly Hh reporter signal, replicate 1 = 77851; firefly Hh reporter signal, replicate 2 = 45047; Renilla reference signal, replicate 1 = 2512; Renilla reference signal, replicate 2 = 1677.
mRpL20 scored firefly Hh reporter signal, replicate 1 = 30804; firefly Hh reporter signal, replicate 2 = 77604; firefly Hh reporter signal, replicate 3 = 1.02e5; Renilla reference signal, replicate 1 = 5739; Renilla reference signal, replicate 2 = 6579.
Against CG31373 the deposit lists firefly Hh reporter signal, replicate 1 = 72418; firefly Hh reporter signal, replicate 2 = 1.02e5; Renilla reference signal, replicate 1 = 2288; Renilla reference signal, replicate 2 = 2870.
Grip128 showed firefly Hh reporter signal, replicate 1 = 1.28e5; firefly Hh reporter signal, replicate 2 = 88504; Renilla reference signal, replicate 1 = 3014; Renilla reference signal, replicate 2 = 2082.
CG34408 showed firefly Hh reporter signal, replicate 1 = 88333; firefly Hh reporter signal, replicate 2 = 85104; Renilla reference signal, replicate 1 = 2235; Renilla reference signal, replicate 2 = 2210.
With knock-down of Khc the results were firefly Hh reporter signal, replicate 1 = 1.39e5; firefly Hh reporter signal, replicate 2 = 1.30e5; Renilla reference signal, replicate 1 = 5987; Renilla reference signal, replicate 2 = 5645.
For dpr20, the values are firefly Hh reporter signal, replicate 1 = 1.12e5; firefly Hh reporter signal, replicate 2 = 1.04e5; Renilla reference signal, replicate 1 = 4741; Renilla reference signal, replicate 2 = 4381.
CG8492 gave firefly Hh reporter signal, replicate 1 = 60946; firefly Hh reporter signal, replicate 2 = 8.31e5; firefly Hh reporter signal, replicate 3 = 86096; Renilla reference signal, replicate 1 = 5378; Renilla reference signal, replicate 2 = 4571.
Against l(2)k09848, the values are firefly Hh reporter signal, replicate 1 = 1.18e5; firefly Hh reporter signal, replicate 2 = 66077; Renilla reference signal, replicate 1 = 5648; Renilla reference signal, replicate 2 = 3600.
For Son the deposit lists firefly Hh reporter signal, replicate 1 = 93059; firefly Hh reporter signal, replicate 2 = 1.09e5; Renilla reference signal, replicate 1 = 3270; Renilla reference signal, replicate 2 = 2540.
Silencing of CG42792 gave: firefly Hh reporter signal, replicate 1 = 1.22e5; firefly Hh reporter signal, replicate 2 = 2.71e5; Renilla reference signal, replicate 1 = 2885; Renilla reference signal, replicate 2 = 11712.
After knock-down of Lcp65Af the results were firefly Hh reporter signal, replicate 1 = 74576; firefly Hh reporter signal, replicate 2 = 61813; Renilla reference signal, replicate 1 = 8230; Renilla reference signal, replicate 2 = 4608.
For AnxB9 the deposit lists firefly Hh reporter signal, replicate 1 = 1.16e5; firefly Hh reporter signal, replicate 2 = 68742; Renilla reference signal, replicate 1 = 4640; Renilla reference signal, replicate 2 = 3213.
For Galk, the entry reads firefly Hh reporter signal, replicate 1 = 99347; firefly Hh reporter signal, replicate 2 = 70235; Renilla reference signal, replicate 1 = 4471; Renilla reference signal, replicate 2 = 3024.
Depletion of CG33775 gave: firefly Hh reporter signal, replicate 1 = 1.49e5; firefly Hh reporter signal, replicate 2 = 2.07e5; Renilla reference signal, replicate 1 = 3602; Renilla reference signal, replicate 2 = 9571.
Knock-down of Dhod came out at: firefly Hh reporter signal, replicate 1 = 1.12e5; firefly Hh reporter signal, replicate 2 = 88896; Renilla reference signal, replicate 1 = 4253; Renilla reference signal, replicate 2 = 3241.
After knock-down of CG34159, the screen gave firefly Hh reporter signal, replicate 1 = 57335; firefly Hh reporter signal, replicate 2 = 27032; Renilla reference signal, replicate 1 = 1379; Renilla reference signal, replicate 2 = 2008.

Part of the list above in another layout.
predicted target	firefly Hh reporter signal, replicate 1	firefly Hh reporter signal, replicate 2	firefly Hh reporter signal, replicate 3	Renilla reference signal, replicate 1	Renilla reference signal, replicate 2
asRNA:CR30267 + CG42260	1.34e5	1.94e5		3672	9465
CG4270	87825	1.02e5		2144	2667
